Measurements published in patent publication US5212286A, “Atrial Natriuretic/vasodilator peptide compounds” (Scios Nova Inc., priority 1986, dated 1993).
Entries after “also recorded” stand apart in the source; their conditions may differ. Not every detail of the peptide structures is certain; ends, links or a residue may be inferred. Positions of bridges follow the written chain, without caps; N, C: chain ends. Residues, ends and D or L forms follow the SMILES beside them.

Assays:
[1] = system: precontracted rabbit or rat aortic preparations; assay: Vasorelaxant potency on precontracted aortic rings; conditions: for IC50: thoracic aortic segments precontracted with histamine or norepinephrine, read-out: IC50 (concentration producing half-maximal relaxation of the precontracted tissue)
Protocol: Synthetic ANVP compounds were compared to partially purified (gel filtration step) and purified (HPLC) native ANVP compounds (See FIGS. 3A-D) for their ability to relax histamine-contracted aortic rings. Rings were suspended in 10 ml aerated Kreb's buffer under 1.5 gm passive tension. Rings were precontracted with 5 X 10^-6 M histamine, washed and allowed to return to baseline tension, as described ([…]., supra). Increasing amounts of purified or synthetic ANVP compounds were then added in cumulative fashion. […] The relaxation effects of various ANVP compounds on precontracted rabbit or rat aortic preparations are shown in Table III. | Thoracic aortic segments were precontracted with histamine or | norepinephrine as previously described. Various doses of ANVP compounds | were then added and relaxation of the precontracted state was monitored. | Data are expressed as the concentration of each peptide required to | produce a halfmaximal relaxation of the precontracted tissue (IC50).

[2] = system: ANVP receptor sites on cultured bovine vascular smooth muscle cells; assay: Displacement of specific [125I]rANVP(126-150) binding on cultured smooth muscle cells; conditions: for Ki: concentration of half-maximal displacement
From the text: Specific and saturable binding is a necessary component of a hormone/receptor interaction.
Various concentrations of the peptides described were examined for […]

[3] = system: intact rats; assay: Natriuretic and diuretic effects in intact rats (bolus injection); type: in vivo, rat
Protocol: Synthetic ANVP compounds […] hANVP(127-151) were also found to be natriuretic in the intact rat. These compounds were administered as a bolus injection to Inactin anesthetized rats (100 mg/kg, average weight 399 g) which were maintained on a constant infusion of normal saline at 2.2 ml/hr. […] Data are expressed as mean±SE.

[4] = system: rabbit thoracic aortic rings; assay: Relaxation of histamine-contracted rabbit thoracic aortic rings; conditions: rings precontracted with histamine; cumulative addition
Protocol: Synthetic ANVP compounds were compared to partially purified (gel filtration step) and purified (HPLC) native ANVP compounds (See FIGS. 3A-D) for their ability to relax histamine-contracted aortic rings. Rings were suspended in 10 ml aerated Kreb's buffer under 1.5 gm passive tension. Rings were precontracted with 5 X 10^-6 M histamine, washed and allowed to return to baseline tension, as described (Kleinert, H. D., supra). Increasing amounts of purified or synthetic ANVP compounds were then added in cumulative fashion.
The dried methanol soluble and ammonium acetate eluted material was resolubilized in 0.5 ml of distilled H2 O and tested for biological activity using the precontracted rabbit thoracic aortic ring model described in Kleinert, et al., Hypertension 6:Suppl. 1:143-146 (1984). Equal volumes of material reconstituted from crude lyophilized media, methanol soluble protein or protein eluted from SP-Sephadex® with 1.0 M ammonium acetate were compared using aortic rings precontracted with 5 μM histamine. Material synthesized by yeast cultures whose plasmids encoded proANVP (amino acids 26-152) (YEp-α-NF-9) and proANVP (amino acids 121-152) (YEp-α-NF-5), as well as the corresponding inverse orientations (YEp-α-NF-12 and YEp-α-NF-7, respectively), were compared.
A fraction of the crude bacteria extract was subsequently boiled for 5 minutes and lowered to pH 2.5 for 1 hour. […]

| SMILES | times less active than rANVP (126-150) in relaxing precontracted vascular segments [1] | vasorelaxant potency in words ([1]; precontracted vascular preparations) | IC50 [1] [nM] | binding activity in smooth muscle cells relative to rANVP(126-150), in words [2] | Ki ([2]; Series B smooth muscle cells) [nM] | diuresis and natriuresis in intact rats, in words ([3]; Table VII doses) | Peak Na+ Excr. ([3]; dose 488 pmol/kg) [µmol/min] | Peak Urine Vol. ([3]; dose 488 pmol/kg) [µL/min] | Peak Na+ Excr. ([3]; dose 460 pmol/kg) [µmol/min] | Peak Urine Vol. ([3]; dose 460 pmol/kg) [µL/min] | relaxation of histamine-contracted aortic rings, comparison in words (FIG. 8) [4] | Ki ([2]; Series A smooth muscle cells) [nM] |
| --- | --- | --- | --- | --- | --- | --- | --- | --- | --- | --- | --- | --- |
| CC[C@H](C)[C@@H]1NC(=O)[C@H](CCCNC(=N)N)NC(=O)[C@H](CC(=O)O)NC(=O)[C@H]([C@@H](C)CC)NC(=O)[C@H](CCCNC(=N)N)NC(=O)CNC(=O)CNC(=O)[C@H](Cc2ccccc2)NC(=O)[C@@H](NC(=O)[C@H](CO)NC(=O)[C@H](CO)NC(=O)[C@@H](N)CCCNC(=N)N)CSSC[C@@H](C(=O)N[C@@H](CC(N)=O)C(=O)N[C@@H](CO)C(=O)O)NC(=O)CNC(=O)[C@H](CC(C)C)NC(=O)CNC(=O)[C@H](CO)NC(=O)[C@H](CCC(N)=O)NC(=O)[C@H](C)NC(=O)CNC1=O [rANVP(126-147)] (H-RSSCFGGRIDRIGAQSGLGCNS-OH; disulfide 4-20) | approximately 100 x | substantially diminished potency; also recorded: substantially less potent than rANVP(126-150) | 72 | comparable binding activity to rANVP(126-150) | 1.55 | potent natriuretic peptide | 21.6 ± 7 | 4.8 ± 2.0 | – | – | – | – |
| CC[C@H](C)[C@@H]1NC(=O)[C@H](CCCNC(=N)N)NC(=O)[C@H](CC(=O)O)NC(=O)[C@H]([C@@H](C)CC)NC(=O)[C@H](CCCNC(=N)N)NC(=O)CNC(=O)CNC(=O)[C@H](Cc2ccccc2)NC(=O)[C@@H](NC(=O)[C@H](CO)NC(=O)[C@H](CO)NC(=O)[C@@H](N)CCCNC(=N)N)CSSC[C@@H](C(=O)N[C@@H](CC(N)=O)C(=O)N[C@@H](CO)C(=O)N[C@@H](Cc2ccccc2)C(N)=O)NC(=O)CNC(=O)[C@H](CC(C)C)NC(=O)CNC(=O)[C@H](CO)NC(=O)[C@H](CCC(N)=O)NC(=O)[C@H](C)NC(=O)CNC1=O [rANVP(126-148)-NH2] (H-RSSCFGGRIDRIGAQSGLGCNSF-NH2; disulfide 4-20) | – | – | 2.5 | – | 1.52 | – | – | – | 10.4 ± 1.7 | 44 ± 5 | – | – |
| CC[C@H](C)[C@@H]1NC(=O)[C@H](CCCNC(=N)N)NC(=O)[C@H](CC(=O)O)NC(=O)[C@H]([C@@H](C)CC)NC(=O)[C@H](CCCNC(=N)N)NC(=O)CNC(=O)CNC(=O)[C@H](Cc2ccccc2)NC(=O)[C@@H](NC(=O)[C@H](CO)NC(=O)[C@@H](N)CO)CSSC[C@@H](C(=O)N[C@@H](CC(N)=O)C(=O)N[C@@H](CO)C(=O)N[C@@H](Cc2ccccc2)C(=O)N[C@@H](CCCNC(=N)N)C(=O)N[C@@H](Cc2ccc(O)cc2)C(=O)O)NC(=O)CNC(=O)[C@H](CC(C)C)NC(=O)CNC(=O)[C@H](CO)NC(=O)[C@H](CCC(N)=O)NC(=O)[C@H](C)NC(=O)CNC1=O [rANVP(127-150), reference compound] (H-SSCFGGRIDRIGAQSGLGCNSFRY-OH; disulfide 3-19) | – | – | – | – | – | – | – | – | – | – | significantly less potent | 2.4 |
